From PMC11130238, “Mechanism of complement inhibition by a mosquito protein revealed through cryo-EM” (Communications Biology, 2024) come the findings set out here.

The experiment has as its target C3bB, the C3 proconvertase (human). Description: SEC; C3b, FB and albicin mixed in buffer A with MgCl2 replaced by NiCl2 (no FD); Superdex 200 Increase in buffer A-Ni; SDS-PAGE of fractions; both purified. (In general: In gel filtration, larger molecules generally elute earlier.)

Results are given in words; binding and its absence hold for the method and conditions named.

B1: albicin (natural protein)
chain: ANNHIRTVLKLFRTIDLDDSKKSFYLTAAKYGIQTQLREPIIRIVGGYLPSTKLSEACVKNMISEVYEIEGDFYSKFSYACEDHAPYSVECLEDARDDYLTQLVELFKETKKCLRE
notes: albicin, salivary Sg7-1 family protein of the mosquito Anopheles albimanus; crystal structure PDB 6XKE; Four-helix bundle with two disulfide bonds; Probably made without its signal peptide (surmised); also called Sg7-1 protein of An. albimanus
Consider B1, for which the binding entry was “no binding”.
